Measurements as given in patent US9999690B2, “Labeled compounds and methods of imaging, diagnosing cartilage disorders and diseases, and monitoring cartilage health using labeled and unlabeled compounds” (Perosphere Inc., priority 2013, dated 2018).
“And” between values parts separate entries of the source, which are not always exact repeats. Equal entries are not always repeated. The source gives many values for each of these; only a part stands here.

How the values were obtained:
[1] = Rat mass balance recovery (urine, feces, cage rinses and wipes, carcasses, expired air), Groups 2 and 3; format: in vivo; conditions: for Mass Balance Recovery, Urine: rat Group 2, IV dose; for Mass Balance Recovery, Expired Air, Trap 2 / Mass Balance Recovery, Expired Air, Trap 3 / Mass Balance Recovery, Expired Air, Trap 2 Subtotal / Mass Balance Recovery, Expired Air, Trap 3 Subtotal: rat Group 3, IV dose
Description: (§1) A study was conducted to determine the pharmacokinetics, rates and routes of excretion with mass baseline and tissue distribution of radioactivity, after a single intravenous dose administration of formula XIII (also referred to as [^14C]DAP) was administered to the rats by tail vein intravenous injection at a
(§2) The study was conducted on 19 male rats divided into 4 groups. The first group of 6 rats was used for blood collection (Group 1); the second group of 4 rats was used for urine, feces, cage rinses and wipes and carcasses collection (Group 2); the third group of 4 rats was used for expired air collection (Group 3); the fourth group of 5 rats was used for terminal blood/serum and tissue distribution by Quantitative Whole-Body Autoradiography (QWBA) (Group 4).

[2] = Rat blood PK and blood to serum ratio, Group 4; format: in vivo
Description: as §1, §2
For Group 4, formula XIII (QWBA was run at 1, 8, 12, 24 and 72 hours post dose. After terminal blood collection, each euthanized animal was frozen in a hexane/dry ice bath and embedded in a 2% carboxymethylcellulose matrix according to MPI Research SOP ADME-112. The embedded carcasses were sectioned according to MPI Research SOP ADME-113 on a Leica CM3600 Cyromacrotome set to maintain −10 to −30° C. At least four fortified quality control standards of known radioactive concentration were placed into the frozen block prior to sectioning and used for section thickness quality control. The quality control standards were sectioned under the same conditions as the specimen. The intrasection and intersection variation of collected sections were determined by analyzing the quality control standards. Section variation must be less than 20% for quantitative analysis. Sections that were approximately 40μm thick were taken in the sagittal plane. Appropriate sections selected at various levels of interest in the block were collected to encompass the following tissues, organs, and biological fluids, where possible: adrenal gland, bladder (urinary) and contents (urine), blood (cardiac), bone, bone marrow, brain, eye, fat (brown), fat (white), heart, kidney, large intestine/cecum and contents, liver, lung, muscle, pancreas, prostate, salivary glands, skin, small intestine and contents, spleen, stomach and contents, testes, thymus, thyroid, mesenteric lymph nodes, and epididymis. A set of sections were mounted, exposed to phosphor imaging screens and scanned using the Storm 860 image acquisition system according to MPI Research SOP ADME-112. Quantification, relative to the calibration standards, were performed by image densitometry using MCID™ image analysis software according to MPI Research SOP ADME-114. A standard curve was constructed from the integrated response (MDC/mm2) and the nominal concentrations of the [^14C]Glucose calibration standards. Relative error should be less than 0.5 for each point on the curve. The concentrations of radioactivity were expressed as μCi/g and were converted to μg or ng-equivalents of DAP per gram of sample (μg- or ng-eq/g) using the specific activity of administered [^14C]DAP dose formulation. A lower limit of quantification (LLOQ) was applied to the data. The LLOQ was determined using the radioactive concentration of the lowest calibration standard used to generate a calibration curve divided by the specific activity of the dose formulation (μCi/ug). Artifacts, such as those produced by dislodged contents of the alimentary canal, were excluded from analysis during image analysis.

[3] = 0-24 hrs, individual rats 301M-304M
[4] = 24-48 hrs, individual rats 301M-304M
[5] = 48-72 hrs, individual rats 301M-304M

Structure (SMILES): [2H]C1([2H])N(CCCNC(=O)[C@@H](N)CCCNC(=N)N)C([2H])([2H])C([2H])([2H])N(CCCNC(=O)[C@@H](N)CCCNC(=N)N)C1([2H])[2H] [formula XIII]
- Mass Balance Recovery, Urine ([1]; 0-8 hrs, Mean): 73.79
- Mass Balance Recovery, Urine ([1]; 0-8 hrs, individual rats 201M-204M): 71.47 and 75.10 and 71.13 and 77.45
- Mass Balance Recovery, Urine ([1]; 8-24 hrs, Mean): 9.50
- Mass Balance Recovery, Urine ([1]; 8-24 hrs, individual rats 201M-204M): 11.56 and 9.15 and 9.65 and 7.62
- Mass Balance Recovery, Expired Air, Trap 2 ([1]; 0-24 hrs, Mean): 0.02
- Mass Balance Recovery, Expired Air, Trap 3 ([1]; 0-24 hrs, Mean): 0.01
- Mass Balance Recovery, Expired Air, Trap 2 [1, 3]: 0.02
- Mass Balance Recovery, Expired Air, Trap 3 [1, 3]: 0.01
- Mass Balance Recovery, Expired Air, Trap 2 ([1]; 24-48 hrs, Mean): 0.00
- Mass Balance Recovery, Expired Air, Trap 3 ([1]; 24-48 hrs, Mean): 0.00
- Mass Balance Recovery, Expired Air, Trap 2 [1, 4]: 0.00
- Mass Balance Recovery, Expired Air, Trap 3 [1, 4]: 0.00
- Mass Balance Recovery, Expired Air, Trap 2 ([1]; 48-72 hrs, Mean): 0.00
- Mass Balance Recovery, Expired Air, Trap 3 ([1]; 48-72 hrs, Mean): 0.00
- Mass Balance Recovery, Expired Air, Trap 2 [1, 5]: 0.00
- Mass Balance Recovery, Expired Air, Trap 3 [1, 5]: 0.00
- Mass Balance Recovery, Expired Air, Trap 2 Subtotal ([1]; Mean): 0.02
- Mass Balance Recovery, Expired Air, Trap 3 Subtotal ([1]; Mean): 0.01
- Mass Balance Recovery, Expired Air, Trap 2 Subtotal ([1]; individual rats 301M-304M): 0.02
- Mass Balance Recovery, Expired Air, Trap 3 Subtotal ([1]; individual rats 301M-304M): 0.01
- Rat Blood PK, Blood ([2]; rat Group 4, 1 hrs, rat 401M): 1602.10
- Rat Blood PK, Serum ([2]; rat Group 4, 1 hrs, rat 401M): 3605.20
- Rat Blood PK, Blood ([2]; rat Group 4, 8 hrs, rat 402M): 147.98
- Rat Blood PK, Serum ([2]; rat Group 4, 8 hrs, rat 402M): 111.94
- Rat Blood PK, Blood ([2]; rat Group 4, 12 hrs, rat 403M): 135.75
- Rat Blood PK, Serum ([2]; rat Group 4, 12 hrs, rat 403M): 73.59
- Rat Blood PK, Blood ([2]; rat Group 4, 24 hrs, rat 404M): 125.15
- Rat Blood PK, Serum ([2]; rat Group 4, 24 hrs, rat 404M): 55.21
- Rat Blood PK, Blood ([2]; rat Group 4, 72 hrs, rat 405M): 29.93
- Rat Blood PK, Serum ([2]; rat Group 4, 72 hrs, rat 405M): 11.84
